# PubChem BioAssay AID1259254, NCATS – 2017
# Assay: 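Genome-wide screen for genes that prevent DNA re-replication in cancer cells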 (primary screen)
# Cell system: human HCT116 colorectal cancer cells
# Reagents: single siRNA against human genes
# Duration: 3 days
# Measurement: 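Nuclei stained with Hoechst and imaged; cell-cycle phase assigned by DNA content; G2 share scaled per plate, non-targeting siRNA 0%, GMNN siRNA 100%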
# Scale: G2 robust z-score and G2 cells, % of GMNN control: higher = more G2 cells, more excess DNA replication; raw share of cells in G2: higher = larger share of cells with G2 DNA content
# Rule for the call: 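Active siRNAs have a G2 robust z of 5 or more median absolute deviations over the median, which in these data means about 38% or higher of GMNN control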
# The whole screen tested about 59,000 reagents; shown is a part drawn at random. About 1,550 of them (2.6%) count as active. 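G2 share is only a proxy for re-replication; each gene was hit by three separate siRNAs, and active genes were retested.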 Raw values vary from plate to plate and are shown uncorrected. Unmarked entries are inactive. The numbers tell different reagents against one gene apart. The record does not give: the amount of reagent.
Gene,siRNA no.,G2 robust z-score,"G2 cells, % of GMNN control",raw share of cells in G2 (%)
APOL1,1,-0.854,-3.04,3.78
APOL1,2,6.79 (active),50.8,24
APOL1,3,0.0708,3.47,4.57
DHX9,1,-0.105,2.23,5.81
DHX9,2,0.481,6.35,6.28
DHX9,3,2.48,20.4,12.2
POSTN,1,2.41,19.9,14.4
POSTN,2,-0.157,1.86,4.44
POSTN,3,0.721,8.04,9.65
TRMT1L,1,-0.555,-0.934,2.12
TRMT1L,2,2.46,20.2,10.8
TRMT1L,3,1.93,16.5,8.36
GPI,1,-1.27,-5.97,3.07
GPI,2,3.05,24.4,14.5
GPI,3,-0.711,-2.03,2.93
EXOC5P1,1,1.06,10.4,7.61
EXOC5P1,2,-0.432,-0.0708,3.25
EXOC5P1,3,-0.252,1.19,3.49
SLC39A8,1,1.42,13,8.94
SLC39A8,2,0.0166,3.08,6.92
SLC39A8,3,0.813,8.69,7.42
OR4D1,1,0.926,9.48,6.61
OR4D1,2,-0.449,-0.189,4.34
OR4D1,3,-0.745,-2.27,2.96
DNMT3L,1,3.94,30.7,20.1
DNMT3L,2,-1.01,-4.11,2.64
DNMT3L,3,-0.374,0.335,4.3

Limited to “G2 robust z-score” (11 entries from above):
TRMT1L #3	1.93
GPI #1	-1.27
GPI #2	3.05
GPI #3	-0.711
EXOC5P1 #1	1.06
EXOC5P1 #2	-0.432
EXOC5P1 #3	-0.252
SLC39A8 #1	1.42
SLC39A8 #2	0.0166
SLC39A8 #3	0.813
OR4D1 #1	0.926

Additional reagents:
Gene,siRNA no.,G2 robust z-score,"G2 cells, % of GMNN control",raw share of cells in G2 (%)
STAG1,1,-0.543,-0.855,4.94
STAG1,2,-0.405,0.116,3.99
STAG1,3,-0.769,-2.44,2.52
GPHRA,1,-0.896,-3.34,1.79
GPHRA,2,-0.497,-0.528,3.09
GPHRA,3,1.47,13.3,8.08
KRT222,1,-0.859,-3.08,0.918
KRT222,2,0.122,3.82,5.62
KRT222,3,-0.417,0.0318,3.34
BHLHA9,1,-0.596,-1.23,3.14
BHLHA9,2,0.465,6.24,5.91
BHLHA9,3,0.422,5.93,4.96
NR4A1,1,0.846,8.92,8.68
NR4A1,2,0.251,4.73,6.17
NR4A1,3,-0.873,-3.17,2.91
ELFN1,1,2.03,17.3,10.1
ELFN1,2,0.174,4.19,5.18
ELFN1,3,-0.114,2.16,5.69
CX3CL1,1,0.0789,3.52,6.47
CX3CL1,2,-0.885,-3.26,2.93
CX3CL1,3,1.2,11.4,7.48
CWH43,1,-0.792,-2.61,3.36
CWH43,2,-0.109,2.2,5.26
CWH43,3,-1.61,-8.38,0.0859
NUP88,1,0.299,5.07,7.12
NUP88,2,-0.301,0.848,5.09
NUP88,3,-0.378,0.308,3.3
ZNF441,1,-0.413,0.0614,3.11
ZNF441,2,1.02,10.1,6.68
ZNF441,3,-0.0274,2.77,4.5
LINC01551,1,0.79,8.53,6.69
LINC01551,2,1.63,14.5,9.7
LINC01551,3,1.24,11.7,9.65
SCCPDH,1,0.138,3.94,5.36
SCCPDH,2,-0.259,1.14,4.98
SCCPDH,3,1.55,13.9,7.63
COX4I2,1,0.491,6.42,7.17
COX4I2,2,4.9,37.4,17.7
COX4I2,3,1.66,14.6,11.5
ARHGEF7,1,0.583,7.07,7.75
ARHGEF7,2,-1.02,-4.18,3.79
ARHGEF7,3,1.61,14.3,9.82
